Results deposited as PubChem BioAssay AID1224829 (NIAID, 2016)
Shown is one part, drawn at random, of about 3,800 reagents tested. 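Calls cover raised and lowered translocation; gene median uses one vendor's three siRNAs; qiagen siRNAs acted more weakly than ambion siRNAs.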 Entries without a mark were called inactive. Reagents against one gene are numbered here. Further read-outs or replicates are left out here.

- Purpose: 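Genes needed for LPS-driven NF-kappaB p65 nuclear entry in mouse macrophages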 (follow-up of hits)
- Cell system: mouse RAW264.7 G9 macrophage reporter cells
- Reagent: single siRNA against mouse genes, 100 nM
- Time to read-out: 2 days of siRNA knock-down, then 40 min of LPS before fixing
- Treatment: LPS (Salmonella minnesota R595) at 10 ng/ml
- Detection: 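Imaging of GFP-p65 after 40 min of LPS; nuclear over perinuclear ring intensity ratio, scaled to plate median and non-targeting control wells, given as z-score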
- Reading the numbers: p65 translocation z-score: higher = more nuclear NF-kappaB p65 after LPS
- Hit rule: 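An siRNA is called active when the mean z-score of its two replicates is above 2 or below -2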
- Meaning of the calls: active = changed p65 translocation (either direction); inactive = no clear change

How did the screen score Tbca (tubulin cofactor A) #1, siRNA vendor or control pool ambion single siRNA?
p65 translocation z-score, replicate mean: -5.08 (active)

What is on record for Tbca (tubulin cofactor A) #2, siRNA vendor or control pool ambion single siRNA?
p65 translocation z-score, replicate mean: -0.0238

How did the screen score Tbca (tubulin cofactor A) #3, siRNA vendor or control pool ambion single siRNA?
p65 translocation z-score, replicate mean: -1.17

For Tbca (tubulin cofactor A) #4, siRNA vendor or control pool qiagen single siRNA, how do the results read?
p65 translocation z-score, replicate mean: 1.55

With Tbca (tubulin cofactor A) #5, siRNA vendor or control pool qiagen single siRNA, what does the deposit list?
p65 translocation z-score, replicate mean: -0.702

With Tbca (tubulin cofactor A) #6, siRNA vendor or control pool qiagen single siRNA, what was measured?
p65 translocation z-score, replicate mean: -0.973

Which result is listed for Elf3 (E74-like factor 3) #1, siRNA vendor or control pool ambion single siRNA?
p65 translocation z-score, replicate mean: -1.5

With Elf3 (E74-like factor 3) #2, siRNA vendor or control pool ambion single siRNA, what does the deposit list?
p65 translocation z-score, replicate mean: -5.94 (active)

What is on record for Elf3 (E74-like factor 3) #3, siRNA vendor or control pool ambion single siRNA?
p65 translocation z-score, replicate mean: 0.0597

Which result is listed for Elf3 (E74-like factor 3) #4, siRNA vendor or control pool qiagen single siRNA?
p65 translocation z-score, replicate mean: 2.52 (active)

How did the screen score Elf3 (E74-like factor 3) #5, siRNA vendor or control pool qiagen single siRNA?
p65 translocation z-score, replicate mean: 0.758

What did the screen give for Elf3 (E74-like factor 3) #6, siRNA vendor or control pool qiagen single siRNA?
p65 translocation z-score, replicate mean: -1.61

For Ubqln2 (ubiquilin 2) #1, siRNA vendor or control pool ambion single siRNA, what does the deposit list?
p65 translocation z-score, replicate mean: -3.1 (active)

For Ubqln2 (ubiquilin 2) #2, siRNA vendor or control pool ambion single siRNA, what does the deposit list?
p65 translocation z-score, replicate mean: -1.39

For Ubqln2 (ubiquilin 2) #3, siRNA vendor or control pool ambion single siRNA, how do the results read?
p65 translocation z-score, replicate mean: -1.55

Which result is listed for Ubqln2 (ubiquilin 2) #4, siRNA vendor or control pool qiagen single siRNA?
p65 translocation z-score, replicate mean: 1.29

With Ubqln2 (ubiquilin 2) #5, siRNA vendor or control pool qiagen single siRNA, how do the results read?
p65 translocation z-score, replicate mean: -4.4 (active)

For Ubqln2 (ubiquilin 2) #6, siRNA vendor or control pool qiagen single siRNA, how do the results read?
p65 translocation z-score, replicate mean: -4.38 (active)

With Slc38a9 #1, siRNA vendor or control pool ambion single siRNA, what was measured?
p65 translocation z-score, replicate mean: 1.02

With Slc38a9 #2, siRNA vendor or control pool ambion single siRNA, what was measured?
p65 translocation z-score, replicate mean: 0.64

Which result is listed for Slc38a9 #3, siRNA vendor or control pool ambion single siRNA?
p65 translocation z-score, replicate mean: -0.473

For Prelid3a (PRELI domain containing 3A) #1, siRNA vendor or control pool ambion single siRNA, what does the deposit list?
p65 translocation z-score, replicate mean: 1.92

What did the screen give for Prelid3a (PRELI domain containing 3A) #2, siRNA vendor or control pool ambion single siRNA?
p65 translocation z-score, replicate mean: 1.22

For Prelid3a (PRELI domain containing 3A) #3, siRNA vendor or control pool ambion single siRNA, how do the results read?
p65 translocation z-score, replicate mean: -3.18 (active)

For Prelid3a (PRELI domain containing 3A) #4, siRNA vendor or control pool qiagen single siRNA, how do the results read?
p65 translocation z-score, replicate mean: 0.477

With Prelid3a (PRELI domain containing 3A) #5, siRNA vendor or control pool qiagen single siRNA, what does the deposit list?
p65 translocation z-score, replicate mean: 0.803

What is on record for Prelid3a (PRELI domain containing 3A) #6, siRNA vendor or control pool qiagen single siRNA?
p65 translocation z-score, replicate mean: -2.24 (active)

For Ppm1a (protein phosphatase 1A, magnesium dependent, alpha isoform) #1, siRNA vendor or control pool ambion single siRNA, how do the results read?
p65 translocation z-score, replicate mean: -1.69

Which result is listed for Ppm1a (protein phosphatase 1A, magnesium dependent, alpha isoform) #2, siRNA vendor or control pool ambion single siRNA?
p65 translocation z-score, replicate mean: -0.966

With Ppm1a (protein phosphatase 1A, magnesium dependent, alpha isoform) #3, siRNA vendor or control pool ambion single siRNA, how do the results read?
p65 translocation z-score, replicate mean: -1.82

With Ppm1a (protein phosphatase 1A, magnesium dependent, alpha isoform) #4, siRNA vendor or control pool qiagen single siRNA, how do the results read?
p65 translocation z-score, replicate mean: 1.45

With Ppm1a (protein phosphatase 1A, magnesium dependent, alpha isoform) #5, siRNA vendor or control pool qiagen single siRNA, how do the results read?
p65 translocation z-score, replicate mean: -1.27

For Ppm1a (protein phosphatase 1A, magnesium dependent, alpha isoform) #6, siRNA vendor or control pool qiagen single siRNA, what does the deposit list?
p65 translocation z-score, replicate mean: -2.83 (active)

Entries listed so far marked active, once more:
Tbca (tubulin cofactor A) #1, siRNA vendor or control pool ambion single siRNA — p65 translocation z-score, replicate mean: -5.08 (active)
Elf3 (E74-like factor 3) #2, siRNA vendor or control pool ambion single siRNA — p65 translocation z-score, replicate mean: -5.94 (active)
Elf3 (E74-like factor 3) #4, siRNA vendor or control pool qiagen single siRNA — p65 translocation z-score, replicate mean: 2.52 (active)
Ubqln2 (ubiquilin 2) #1, siRNA vendor or control pool ambion single siRNA — p65 translocation z-score, replicate mean: -3.1 (active)
Ubqln2 (ubiquilin 2) #5, siRNA vendor or control pool qiagen single siRNA — p65 translocation z-score, replicate mean: -4.4 (active)
Ubqln2 (ubiquilin 2) #6, siRNA vendor or control pool qiagen single siRNA — p65 translocation z-score, replicate mean: -4.38 (active)
Prelid3a (PRELI domain containing 3A) #3, siRNA vendor or control pool ambion single siRNA — p65 translocation z-score, replicate mean: -3.18 (active)
Prelid3a (PRELI domain containing 3A) #6, siRNA vendor or control pool qiagen single siRNA — p65 translocation z-score, replicate mean: -2.24 (active)
Ppm1a (protein phosphatase 1A, magnesium dependent, alpha isoform) #6, siRNA vendor or control pool qiagen single siRNA — p65 translocation z-score, replicate mean: -2.83 (active)
